This is a selection; strong and weak results do not stand in their true shares. At the low end of the ranking the order means little.
Experiments:
Assay in all cases: DAPPL (digital affinity profiling via proximity ligation, sequencing)
Conditions in all cases: 10 mM Tris-HCl pH 7.5, 50 mM NaCl, 1 mM DTT, 4% glycerol, room temperature, 30 min; GST-TFs on glutathione beads, 16-mer random dsDNA library, 0.1% …; high values mean tight binding; double strand, one strand shown; scale: fold enrichment (6-mer frequency, TF over GST control)
FEV = target: T1, FEV (UniProt Q99581)
T1 sequence: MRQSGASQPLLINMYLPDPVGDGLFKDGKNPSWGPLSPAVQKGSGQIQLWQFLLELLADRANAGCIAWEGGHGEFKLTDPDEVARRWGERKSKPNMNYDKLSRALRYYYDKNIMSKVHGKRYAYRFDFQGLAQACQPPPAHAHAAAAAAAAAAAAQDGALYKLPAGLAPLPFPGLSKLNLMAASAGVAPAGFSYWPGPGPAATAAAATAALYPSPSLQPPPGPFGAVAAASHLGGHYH

The chains behind the UniProt entries cited, without tags or fusion partners. Where a name states a change or a piece, a line headed by the entry shows the natural chain unless it says otherwise.
UniProt O43186: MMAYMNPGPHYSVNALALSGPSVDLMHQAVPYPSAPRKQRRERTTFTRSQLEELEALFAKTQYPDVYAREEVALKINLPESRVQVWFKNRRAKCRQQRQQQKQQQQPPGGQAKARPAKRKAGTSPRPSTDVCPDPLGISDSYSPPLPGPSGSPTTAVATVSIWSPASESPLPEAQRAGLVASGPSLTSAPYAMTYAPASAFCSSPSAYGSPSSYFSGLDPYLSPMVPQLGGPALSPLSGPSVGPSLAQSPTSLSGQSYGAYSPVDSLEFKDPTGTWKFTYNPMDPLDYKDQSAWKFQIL

CRX = CRX (UniProt O43186)
ELF5 = target: T2, ELF5 (UniProt Q9UKW6-2)
T2 sequence: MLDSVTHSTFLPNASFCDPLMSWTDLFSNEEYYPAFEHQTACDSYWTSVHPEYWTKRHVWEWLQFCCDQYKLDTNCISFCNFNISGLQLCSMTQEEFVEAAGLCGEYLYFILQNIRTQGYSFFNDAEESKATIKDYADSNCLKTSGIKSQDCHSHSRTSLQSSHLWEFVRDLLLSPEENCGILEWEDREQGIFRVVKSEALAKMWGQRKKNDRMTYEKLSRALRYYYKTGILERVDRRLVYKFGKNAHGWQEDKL

Sequence	binding signal (FEV)	binding signal (CRX)	binding signal (ELF5)
TAGAGC	0.767	0.889	0.702
CGCGAG	0.469	0.434	0.496
ATTGGA	0.907	1.03	0.868
TGTCGG	0.334	0.271	0.36
AGTGGA	0.759	0.686	0.791
GGCGGA	0.417	0.246	0.408
CCGGGA	0.456	0.324	0.729
GCGTGC	0.792	0.589	0.752
GATCGC	0.828	0.84	0.762
GCAAGT	0.802	0.619	0.826
AGGACA	0.854	0.649	0.904
CGCGGA	0.865	0.753	1.03
GTGATA	0.675	0.706	0.645
GCCGTG	0.244	0.209	0.238
CGCAGT	0.785	0.616	0.716
GCGTCG	0.732	0.612	0.819
CGGTGT	0.768	0.466	0.677
CAGACG	0.477	0.367	0.452
TGGACG	0.815	0.683	0.811
TCGGGC	0.505	0.47	0.455
CCGAGT	0.914	0.822	0.929
GATCAG	0.724	1.08	0.685
CAGGGG	0.573	0.495	0.506
ACCAGG	0.699	0.514	0.866

Sequence	binding signal (FEV)	binding signal (CRX)	binding signal (ELF5)
GTAGTG	0.723	0.577	0.809
CGCTGA	0.841	0.799	0.808
GCCGTT	0.831	0.698	0.77
AGGGCG	0.584	0.451	0.557
TGTGAA	0.809	0.718	0.754
AGGTCG	0.5	0.384	0.531
GCGTAC	0.904	0.67	0.888
GTAAGG	0.755	0.679	0.978
ACTGTG	0.485	0.395	0.476
GAAGGG	0.795	0.65	0.846
GACCAG	0.61	0.537	0.583
CCAGGG	0.649	0.541	0.593
ACCGCG	0.81	0.675	0.774
TGTGGG	0.755	0.725	0.801
GGCATC	0.879	0.654	0.814
TGCGAG	0.856	0.876	0.856
GAGGAG	0.197	0.163	0.21
AGAGCA	0.718	0.652	0.7
GGGCCC	0.825	0.557	0.696
CCCGAG	0.878	0.781	0.792
AGGCCA	0.706	0.589	0.648
CAGACA	0.799	0.648	0.815
GCGCAT	0.836	0.84	0.83
AACGAG	0.758	0.709	0.776

Sequence	binding signal (FEV)	binding signal (CRX)	binding signal (ELF5)
GGACGC	0.402	0.253	0.388
GGCACA	0.83	0.59	0.761
GGCCCA	0.854	0.656	0.8
GTGAGC	0.408	0.324	0.353
CAGGTA	0.79	0.705	0.802
GGAGGC	0.263	0.199	0.219
GAGTAG	0.491	0.429	0.46
GACTGT	0.424	0.351	0.413
CGGCGC	0.633	0.454	0.574
GGTGTC	0.786	0.479	0.725
GGCTGT	0.794	0.663	0.732
GAGCTG	0.72	0.717	0.671
GGGGAA	0.687	0.553	0.87
GAACGG	0.634	0.458	0.638
GTGTGG	0.641	0.5	0.641
ACAGCG	0.815	0.618	0.807
CGAGGG	0.665	0.591	0.62
TAGGGG	0.835	0.976	0.726
GATGTG	0.998	0.646	0.935
GAAGAG	0.841	0.69	0.958
AGGTTG	0.669	0.606	0.753
GGACCA	0.736	0.53	0.765
TCGGGT	0.558	0.61	0.58
GGTCAA	0.847	0.629	0.862

Sequence	binding signal (FEV)	binding signal (CRX)	binding signal (ELF5)
CTGGAG	0.627	0.639	0.648
GCAGCG	0.8	0.589	0.766
GTGGAG	0.37	0.354	0.399
CGGGTT	0.847	0.759	1.02
CGAGAC	0.615	0.502	0.515
GTCCAG	0.597	0.534	0.651
CAGTTT	0.85	0.748	0.863
ACGGAC	0.931	0.594	0.852
GCGCAG	0.764	0.68	0.712
TGTGAG	0.333	0.314	0.329
CACGGT	0.887	0.715	0.894
GCCATA	0.834	0.925	0.893
AGATAC	0.92	0.873	0.867
GACCGT	0.412	0.36	0.422
CCACGG	0.805	0.7	0.925
GCCAAA	0.897	0.869	0.887
CGGAAT	0.941	0.718	0.996
CGAGGA	0.632	0.577	0.726
TTCGGA	0.751	0.758	0.736
ACAGAC	0.832	0.624	0.79
GCACGG	0.809	0.634	0.852
CACAGT	0.719	0.544	0.676
AGCCGA	0.843	–	0.791
TCCAGG	0.765	0.806	–

Sequence	binding signal (FEV)	binding signal (CRX)	binding signal (ELF5)
GGGAGT	0.225	0.19	0.219
GGGTGG	0.712	0.586	0.779
GGGGAT	0.607	–	0.637
GAGGAA	0.713	0.454	–
AGTAGG	0.665	0.576	0.713
GAGCGT	0.324	0.317	0.349
GGAAAG	0.938	0.802	–
TAGCCG	0.903	–	0.868
GACACC	0.987	0.635	0.843
GAGAAC	0.39	0.411	0.377
GGGATG	0.914	0.77	–
CCGTCG	0.775	0.596	0.818
TCGTAA	0.84	–	0.943
CATAGG	0.755	0.669	0.721
CGGGAA	0.657	0.54	–
AGTTGG	0.481	0.389	0.494
GGCAAG	0.7	0.557	0.662
GGTTGC	0.903	0.546	0.869
ATCAGG	0.887	–	0.968
GCGTAA	0.872	–	0.881
AGGTGA	0.537	0.476	0.513
TCAGAA	0.886	–	0.89
CAAGGA	0.683	0.665	–
CGGTAA	0.964	0.951	–

Single records (already shown):
GACACC as listed: binding signal (FEV) = 0.987; binding signal (CRX) = 0.635; binding signal (ELF5) = 0.843
GGGTGG as listed: binding signal (FEV) = 0.712; binding signal (CRX) = 0.586; binding signal (ELF5) = 0.779
GCGTAA as listed: binding signal (FEV) = 0.872; binding signal (ELF5) = 0.881
AGTAGG as listed: binding signal (FEV) = 0.665; binding signal (CRX) = 0.576; binding signal (ELF5) = 0.713
